PubChem BioAssay AID652243 | Drosophila RNAi Screening Center – 2013
The deposit covers about 24,000 reagents; below is an unselected part of those with a known target gene and a result. Over the whole deposit, 246 (1%) got an active call. 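Plates not normalised; calls are printed but the firefly/Renilla ratio behind them is not deposited; fold cut for lowering reported inconsistently.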 The raw values are shown without normalisation. The numbers tell different reagents against one gene apart. The record does not give: the amount of reagent.

Assay: 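Fly genes required for human androgen receptor driven transcription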 (primary screen)
Cells: Drosophila S2R+ cells
Knock-down reagent: long dsRNA against Drosophila genes
Time to read-out: 72 h (48 h, then 24 h hormone)
Challenge: synthetic androgen R1881 at 10 nM for 24 h
Measured: 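Firefly light from an androgen-responsive reporter and Renilla control light per well, raw and unnormalised, for each of two replicates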
Scale: firefly reporter light: higher = more light from androgen-responsive reporter; Renilla control light: higher = more constitutive control signal (cell number, transfection)
Active means: 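Hit when the log firefly-to-Renilla ratio dropped or increased by a fixed fold versus the mean of GFP or LacZ controls across duplicate plates; lowering cut given as 1.5 and as 3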
Meaning of the calls: active = hit: reporter lowered or raised; inactive = no hit

| firefly reporter light, replicate 1 | firefly reporter light, replicate 2 | Renilla control light, replicate 1 | Renilla control light, replicate 2 | Outcome | target | reagent |
| --- | --- | --- | --- | --- | --- | --- |
| 90604 | 99067 | 8.33e5 | 7.08e5 | inactive | CG14647 (GeneID 40558) | 1 |
| 5.11e5 | 9.41e5 | 1.34e6 | 1.99e6 | inactive | CG14647 (GeneID 40558) | 2 |
| 1.07e5 | 88748 | 2.16e6 | 2.02e6 | inactive | eIF3f1 (GeneID 40587) | 1 |
| 2.51e5 | 1.71e5 | 3.58e5 | 3.32e5 | inactive | eIF3f1 (GeneID 40587) | 2 |
| 70628 | 94643 | 1.38e6 | 1.56e6 | inactive | CG14312 (GeneID 42195) | 1 |
| 51736 | 78761 | 9.58e5 | 9.58e5 | inactive | veg (retired record) (GeneID 44057) | 1 |
| 12643 | 18034 | 2.64e5 | 1.72e5 | inactive | Ltn1 (GeneID 40127) | 1 |
| 2.86e5 | 1.95e5 | 2.67e6 | 2.74e6 | inactive | Ltn1 (GeneID 40127) | 2 |
| 49076 | 1.41e5 | 6.82e5 | 7.50e5 | inactive | CG7655 (GeneID 42128) | 1 |
| 55795 | 87058 | 4.69e5 | 4.83e5 | inactive | CG5808 (GeneID 42957) | 1 |
| 1.06e6 | 9.71e5 | 1.11e6 | 1.28e6 | inactive | CG5888 (GeneID 34980) | 1 |
| 4.54e5 | 5.57e5 | 9.22e5 | 1.07e6 | inactive | CG5888 (GeneID 34980) | 2 |
| 6.53e5 | 4.60e5 | 1.61e6 | 1.66e6 | inactive | sktl (GeneID 37356) | 1 |
| – | – | – | – | inactive | sktl (GeneID 37356) | 2 |
| – | – | – | – | inactive | sktl (GeneID 37356) | 3 |

Continued; the last 3 above are carried over.
| firefly reporter light, replicate 1 | firefly reporter light, replicate 2 | Renilla control light, replicate 1 | Renilla control light, replicate 2 | Outcome | target | reagent |
| --- | --- | --- | --- | --- | --- | --- |
| 6.53e5 | 4.60e5 | 1.61e6 | 1.66e6 | inactive | sktl (GeneID 37356) | 1 |
| – | – | – | – | inactive | sktl (GeneID 37356) | 2 |
| – | – | – | – | inactive | sktl (GeneID 37356) | 3 |
| 2.13e5 | 1.92e5 | 1.99e6 | 1.99e6 | inactive | sta (GeneID 31106) | 1 |
| 2.64e5 | 2.99e5 | 6.00e5 | 4.47e5 | inactive | sta (GeneID 31106) | 2 |
| 2.38e5 | 3.27e5 | 2.38e6 | 2.45e6 | inactive | CG13575 (GeneID 37883) | 1 |
| 3.29e5 | 6.79e5 | 9.45e5 | 1.76e6 | inactive | CG13575 (GeneID 37883) | 2 |
| 1.42e5 | 1.06e5 | 5.43e5 | 4.24e5 | inactive | stwl (GeneID 39581) | 1 |
| 1.64e5 | 2.76e5 | 8.53e5 | 5.73e5 | inactive | stwl (GeneID 39581) | 2 |
| 52521 | 57619 | 7.85e5 | 4.64e5 | inactive | Non3 (GeneID 42183) | 1 |
| 36400 | 59593 | 7.42e5 | 7.42e5 | inactive | Vha14-1 (GeneID 36731) | 1 |
| 65396 | 99040 | 5.73e5 | 1.00e6 | inactive | Spn88Eb (GeneID 41829) | 1 |
| 4.36e5 | 3.56e5 | 2.09e6 | 1.76e6 | inactive | ppk29 (GeneID 37844) | 1 |
| 7.28e5 | 6.44e5 | 2.16e6 | 2.26e6 | inactive | CG1773 (GeneID 35999) | 1 |
| 7.82e5 | 8.81e5 | 8.85e5 | 1.44e6 | inactive | Oatp33Ea (GeneID 34660) | 1 |
| 3.58e5 | 3.68e5 | 5.06e5 | 7.23e5 | inactive | Oatp33Ea (GeneID 34660) | 2 |
| 3.46e5 | 2.94e5 | 1.60e6 | 1.65e6 | inactive | CG30385 (GeneID 246585) | 1 |
| 8.18e5 | 8.23e5 | 1.02e6 | 1.11e6 | inactive | CG42733 (GeneID 36093) | 1 |
| 2.22e5 | 2.02e5 | 1.72e6 | 2.05e6 | inactive | CG15332 (GeneID 31714) | 1 |
| 8.38e5 | 8.66e5 | 8.37e5 | 8.59e5 | inactive | CG15332 (GeneID 31714) | 2 |
| 2.89e5 | 2.91e5 | 2.65e6 | 1.66e6 | inactive | CG11076 (GeneID 43830) | 1 |
| 8.85e5 | 8.35e5 | 1.15e6 | 1.36e6 | inactive | eIF2Bgamma (GeneID 36722) | 1 |
| 4.79e5 | 4.23e5 | 1.38e6 | 1.51e6 | inactive | eIF2Bgamma (GeneID 36722) | 2 |
| 46198 | 65537 | 3.65e5 | 4.08e5 | inactive | Glys (GeneID 41823) | 1 |
| 1.74e5 | 1.72e5 | 9.79e5 | 8.81e5 | inactive | ogre (GeneID 45382) | 1 |
| 4.32e5 | 3.98e5 | 5.10e5 | 3.54e5 | inactive | ogre (GeneID 45382) | 2 |
| 1.04e5 | 1.12e5 | 6.57e5 | 8.75e5 | inactive | CG14340 (GeneID 33287) | 1 |
| 97920 | 74308 | 8.02e5 | 8.15e5 | inactive | p53 (GeneID 2768677) | 1 |
